In patent publication US20160000782A1, “PHARMACEUTICAL COMPOSITION CONTAINING ANTIBACTERIAL AGENT” (priority 2013, published 2016):
For at least one compound, name, drawing or mass did not settle the structure.

Test system: Archaea (extreme halophile) infection causing dementia
Assay: Treatment of patients with progressive dementia of unknown etiology (clinical course, MRI)
Assay type: in vivo, human
Experimental: The present inventors conducted studies by targeting 4 subjects with progressive dementia of unknown etiology at the Kagoshima University Medical and Dental Hospital. This study took place after the informed consent of the patients involved had been obtained. Also, this study was carried out with the approval of the ethical review committee of Kagoshima University.
Dementia was evaluated using the Revised Hasegawa Dementia Scale (HDS-R), which is […] that used for the mini-mental status examination (MMSE).

[1] = Patient 2, methylprednisolone intravenous 1,000 mg/day

## C[C@H]1C[C@@H]2[C@H]([C@@H](O)C[C@@]3(C)[C@H]2CC[C@]3(O)C(=O)CO)[C@@]2(C)C=CC(=O)C=C12 [methylprednisolone]
Patient 1, ceftriaxone and methylprednisolone administered together, 2 weeks after the initial administration
  symptoms: improved slightly
Patient 1, ceftriaxone and methylprednisolone administered together, later course, enlarged lesion in base of temporal lobe on brain MRI
  symptoms thereafter: tended to progress
Patient 2, after methylprednisolone treatment
  symptoms, later course: worsened again
[1]
  ability to hold a conversation: temporarily recovered
  level of consciousness and movement disorder: improved
